Results taken from EP1874311B1, “A METHOD FOR PREVENTING, DELAYING OR REVERTING ABNORMAL AMYLOID DEPOSITION” (Research & Innovation S.p.A., priority 2005, dated 2006).
For at least one compound, name, drawing or mass did not settle the structure.

What was measured:
TG2576 mice = assay: Plasma amyloidogenic Aβ peptides in TG2576 mice after i.p. administration (ELISA); format: in vivo; settings: result in words, 10 mg/Kg i.p., 3 hours post-treatment
Method: The selected dihydropyridine, nicardipine (see table 2) as well as nimodipine were administered, in TG2576 animals, at dose of 10 mg/Kg i.p. Animals were bleed before treatment for assessment of basal circulating Aβ peptides as well as 3 hours post-treatment. Determination of blood amyloidogenic Aβ peptide concentration was performed using ELISA technique.
Table 2 Levels of the amyloidogenic peptides in plasma of TG2576 mice before and 3 hours following administration of the exemplified dihydropyridines

neuronal cell lines = settings: variety of different neuronal cell lines, cited from earlier work; for amount of the beta-amyloid isoform 1-42: culture media

Structure (SMILES)	total blood levels of the amyloidogenic Aβ peptides (TG2576 mice)	amount of the beta-amyloid isoform 1-42 (neuronal cell lines)	amount of amyloidogenic Aβ peptides found in culture media (neuronal cell lines)
COC(=O)C1=C(C)NC(C)=C(C(=O)OCCN(C)Cc2ccccc2)C1c1cccc([N+](=O)[O-])c1 (stereo not drawn) [Nicardipine, nicardipine]	elevations	–	–
COCCOC(=O)C1=C(C)NC(C)=C(C(=O)OC(C)C)C1c1cccc([N+](=O)[O-])c1 (stereo not drawn) [Nimodipine, nimodipine]	does not affect	increase	do not significantly decrease
CCOC(=O)C1=C(C)NC(C)=C(C(=O)OC)C1c1cccc([N+](=O)[O-])c1 (stereo not drawn) [nitrendipine]	–	increase	do not significantly decrease
